The record followed here is patent US7351744B2, “Naphthalene derivatives as termite repellents and toxicants” (Board of Supervisors of Louisiana State University and …, priority 2003, dated 2008).

This data set concerns C. formosanus workers and soldiers. Briefly: Topical application toxicity assay. Format: in vivo, Coptotermes formosanus. As for the experimental part: Dose-mortality data were analyzed using probit analysis as adapted for PC use (POLO-PC), which automatically corrected for control mortality using Abbott's transformation. See, e.g., R. M Russell et al., “POLO: a new computer program for probit analysis,” Bull. Entomol. Soc. Am., vol. 23, pp. 209-213 (1977); and LeOra Software, “POLO-PC, a user's guide to probit analysis or logit analysis” (1987). The LD50s of workers and soldiers from four tested colonies (y) were plotted against the average weight of tested termites (x) to establish a linear regression equation and conduct correlation analyses. Mean survival, food consumption and tunnel areas were compared among treatments using analysis of variance (ANOVA), followed by least significant difference procedures. See, SAS Institute, SAS/STAT User's Guide: version 8, SAS Institute, Inc., Cary, N.C. (1999). In two-choice assays using either treated filter paper or treated sand, the parameters measured in the two lateral sides of each treatment were compared using paired t-tests. All data were judged at α=0.05.
Acute toxicity of 2′-acetonaphthone was bioassayed using doses that ranged from 1.25 to 20 ug/termite. At stock solution of 2′-acetonaphthone was prepared ([…]). Dilutions were made by taking aliquots from the stock solution (62.5, 125, 250, 375, 500, 750, and 1000 μl), and adjusting each volume to 2 ml with acetone. A group of 20 workers or soldiers (from colonies BS, WB, E and CR) were placed in a Petri dish (6 cm×1.5 cm) and chilled on top of an ice brick (30.32 cm×17.78 cm×3.81 cm; IceBerg, Mid-Lands Chemical Company, Inc., Miami, Fla.) to slow their movement. Each termite was treated with a topical dose in 0.2 μl acetone to the dorsum of the mesothorax using a Hamilton PB 600 Repeating Dispenser equipped with a 10 μl syringe (Hamilton, Reno, Nev.). The experimental termites were treated with doses equivalent to 1.25, 2.50, 5.0, 7.5, 10.0, 15.0, and 20.0 μg/termite. Control termites were dosedwith only 0.2 μl acetone. Five replicates, each with 20 workers or 20 soldiers, were used for each dose and control. For each replicate, termites were maintained in a plastic container (5.5 cm×3.7 cm, Pioneer Pckaging Co., North Dixon, Ky.), each provided with a filter paper (Whatman #2, 55 mm diameter) wetted with 250 μl double distilled water (DDH20). The containers were covered with lids, and kept for 2 days at room temperature (26-28° C.). Daily mortality in each dish was recorded. Termites were considered dead if unable to right themselves when prodded with a fine paint brush.

As for `CC(=O)c1ccc2ccccc2c1` [2′-acetonaphthone], the “Slope ± SE (LD-P line)” value (colony BS, 24 hours, Soldier) worked out at 2.06 ± 0.20; the “Slope ± SE (LD-P line)” value (colony BS, 24 hours, Worker) is on record as 2.52 ± 0.22; the “Slope ± SE (LD-P line)” value (colony BS, 48 hours, Soldier) amounted to 4.22 ± 0.40; the “Slope ± SE (LD-P line)” value (colony BS, 48 hours, Worker) came to 3.35 ± 0.30; the “Slope ± SE (LD-P line)” value (colony CR, 24 hours, Soldier) turned out to be 3.51 ± 0.26; the “Slope ± SE (LD-P line)” value (colony CR, 24 hours, Worker) was found to be 3.27 ± 0.24. The “Slope ± SE (LD-P line)” value by setting is: (colony CR, 48 hours, Soldier) 3.95 ± 0.33; (colony CR, 48 hours, Worker) 3.57 ± 0.33; (colony E, 24 hours, Soldier) 2.93 ± 0.19; (colony E, 24 hours, Worker) 2.99 ± 0.20; (colony E, 48 hours, Soldier) 2.79 ± 0.19; (colony E, 48 hours, Worker) 2.55 ± 0.19. The “Slope ± SE (LD-P line)” value is recorded as 3.09 ± 0.27 (colony WB, 24 hours, Soldier); 2.29 ± 0.24 (colony WB, 24 hours, Worker); 3.12 ± 0.49 (colony WB, 48 hours, Soldier); 4.99 ± 0.74 (colony WB, 48 hours, Worker). The “tolerance of colony E versus colony WB” value (termites from colony E vs colony WB) came out at 4 fold.
